How the values were obtained:
[1] = test system: spleen cells (lymphocytes) stimulated with concanavalin A; assay: cells; settings: Mus musculus, Lymphocyte, read-out: Inhibition of Concanavalin A Induced Stimulation of Lymphocytes (IC50)
[2] = test system: spleen cells (lymphocytes) stimulated with concanavalin A; settings: DCL versus loratadine, description

Clc1ccc2c(c1)CCc1cccnc1C2=C1CCNCC1 [DCL, 8-chloro-6,11-dihydro-11-(4-piperidylidene)-5H-benzo[5,6]cyclohepta[1,2-b]pyridine]
IC50 [1]: 5.6 µM
activity in tumor promotion compared to loratadine (statement in words) [2]: five to seven times less active

Reference: patent US7214684B2, “Methods for the treatment of allergic rhinitis” (Sepracor Inc., priority 1994, dated 2007)
